The list shows a part of the results.
target: T1, OsSMF1 (Oryza sativa, UniProt Q6ZLB0 1-436); test: protein-binding microarray (RPBM); PBS, 2% BSA, 51.3 ng/ul salmon testes DNA, 50 uM zinc acetate, 200 nM TF, 25 C, 1 h; high values mean tight binding; settings: protein: recombinant; tags: N-terminal polyhistidine and DsRed monomer fusion (pET32a); chain copies: 2; label: CyDye5-dUTP incorporated in the synthesized complementary strand; 3' TTTTT single-stranded linker to array surface; dsDNA, one strand shown
T1 sequence: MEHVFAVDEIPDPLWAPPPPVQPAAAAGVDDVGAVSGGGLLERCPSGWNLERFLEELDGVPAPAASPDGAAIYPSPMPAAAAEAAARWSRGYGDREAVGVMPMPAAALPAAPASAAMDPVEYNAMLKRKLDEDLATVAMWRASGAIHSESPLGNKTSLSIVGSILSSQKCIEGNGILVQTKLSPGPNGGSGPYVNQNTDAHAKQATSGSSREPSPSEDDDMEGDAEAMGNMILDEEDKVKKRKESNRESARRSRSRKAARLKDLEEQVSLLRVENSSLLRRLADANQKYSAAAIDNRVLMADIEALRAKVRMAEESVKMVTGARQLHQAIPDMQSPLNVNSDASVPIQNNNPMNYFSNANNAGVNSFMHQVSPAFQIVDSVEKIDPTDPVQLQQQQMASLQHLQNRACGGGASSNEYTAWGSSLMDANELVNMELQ
Outline: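 Per-feature fluorescence intensity (arbitrary units), read on an Axon 4000B scanner, is the binding signal. Transcription factors carrying an N-terminal polyhistidine tag and DsRed fusion were expressed in E. coli BL21-CodonPlus and purified on Ni–NTA. A custom Agilent array, made double-stranded by primer extension with Cy5-dUTP and blocked with 2% BSA, was incubated with 200 nM protein in PBS, 2% BSA, salmon testes DNA and 50 µM zinc acetate at 25 °C for 1 h and then washed.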

In order of rising binding signal:
1. TGCTCTATCATACGAAATGTCACACTGTTTTGTGCGTGTTCGGAGTCACCTAGTGCAG  3220 fluorescence intensity (a.u.)
2. GATCAATCCATCGAGGTGTGACGCGCCATCTCGCCGCTCGCGGAGTCACCTAGTGCAG  3260 fluorescence intensity (a.u.)
3. CAATCTGTCATCTCTTTACCAGTCTCATTGACATGTGGGCCGGAGTCACCTAGTGCAG  3270 fluorescence intensity (a.u.)
4. GTCGAGCTGGCACAAATATTCGCGTCAAGAGGGGTGAGACCGGAGTCACCTAGTGCAG  3280 fluorescence intensity (a.u.)
5. GGGCAGGGAAGGATCTTCGATAGGCTTTGATGAGCAGGGGCGGAGTCACCTAGTGCAG  3330 fluorescence intensity (a.u.)
6. TAGCCGGCCAGTCGAGTCGGAAACCCAGTTTGACACGGTTCGGAGTCACCTAGTGCAG  3340 fluorescence intensity (a.u.)
7. CAATACATAACAATAACTTCATTGACACATAAACAAATGGCGGAGTCACCTAGTGCAG  3340 fluorescence intensity (a.u.)
8. CGGGCGCCATGCCGTCAATCACACGCCATACAGATCAAACCGGAGTCACCTAGTGCAG  3460 fluorescence intensity (a.u.)
9. CCCTGTTTACACTACTTGTGATTTGACTCATGCTGGACTTCGGAGTCACCTAGTGCAG  3470 fluorescence intensity (a.u.)
10. AGGATTGGACTGGCATTAGCTATGTCACTGGTAGATGGGACGGAGTCACCTAGTGCAG  3510 fluorescence intensity (a.u.)
11. AACGCCCAGATCGATTCAGGCTGTGTCCCATACTCCCATACGGAGTCACCTAGTGCAG  3540 fluorescence intensity (a.u.)
12. ATGCACCACAGATTCCGTTCGTCACGCGCCCGTTCACACCCGGAGTCACCTAGTGCAG  3590 fluorescence intensity (a.u.)
13. GGAGGTTCAAATTTAGATGAAATGATGAGGATGCTCTAAGCGGAGTCACCTAGTGCAG  3670 fluorescence intensity (a.u.)
14. TTAATAAACTGACCGCATCACCCGCCGTACGTCGCCGTCGCGGAGTCACCTAGTGCAG  3670 fluorescence intensity (a.u.)
15. CGCCAACGACGACGTGCGCACGCGTGGGCGCGCCCTTCTTCGGAGTCACCTAGTGCAG  3700 fluorescence intensity (a.u.)
16. GCACTTACGGGTGGTGATTGTAGTGTGCGTGTGTGTCTTTCGGAGTCACCTAGTGCAG  3740 fluorescence intensity (a.u.)
17. AACTTCTCGCGTGTCCTTCTCGTACTGGGCTGGGCTGGGCCGGAGTCACCTAGTGCAG  3840 fluorescence intensity (a.u.)
18. AATCAGCGTGGGTCCCACCTGTCAATCTCAAACTTCCCTTCGGAGTCACCTAGTGCAG  3850 fluorescence intensity (a.u.)
19. CCATTCCCCTAGTTTCCCCTCTCTTTTAGCCACCCTATCCCGGAGTCACCTAGTGCAG  4000 fluorescence intensity (a.u.)
20. GACTCCTGAGGTGGTTATACGGATCGAGATAAACGTGCGACGGAGTCACCTAGTGCAG  4120 fluorescence intensity (a.u.)
21. ACGTATACGTTACGTACGTGTGGCCGTGCTTTAATCTCCCCGGAGTCACCTAGTGCAG  4330 fluorescence intensity (a.u.)
22. CAGGCTGACAGGTGGGTCCAGGTATAATCAGAGTCCACGTCGGAGTCACCTAGTGCAG  4330 fluorescence intensity (a.u.)
23. CGGTGGTGCGCACAGATGTCTTCCTTGGTGTCACCACCCGCGGAGTCACCTAGTGCAG  4380 fluorescence intensity (a.u.)
24. TTTCAACAGATATTTTATTGTGACGTTGCAATTACTAAAACGGAGTCACCTAGTGCAG  4950 fluorescence intensity (a.u.)
25. CTTTGGCCGAGTTGGCACCACCATCAGATTCAGGCCTTCGCGGAGTCACCTAGTGCAG  5520 fluorescence intensity (a.u.)
26. GAGGCCGAACGAGCGAGGCTGTGTCAGCACGTTGACACCTCGGAGTCACCTAGTGCAG  5620 fluorescence intensity (a.u.)
27. TCCGACTTGACTGCTATAAACTGATGACTCGTCGAAAAGCCGGAGTCACCTAGTGCAG  5890 fluorescence intensity (a.u.)
28. CTTCCCGTGGTCGACGTGGGCTATCACCGCCACGTTGCGGCGGAGTCACCTAGTGCAG  6390 fluorescence intensity (a.u.)
29. AATTTCATTGCTTCAGAGGTTTTATGATCCTGACGTAGGACGGAGTCACCTAGTGCAG  6440 fluorescence intensity (a.u.)
30. CCGTGCGAGACTACGTGTCTTCGGCTGTGCCTGTTCGCGACGGAGTCACCTAGTGCAG  6600 fluorescence intensity (a.u.)
31. CTTACTAGTATTGCATTTATGACGCGGCGCAACCTCCGATCGGAGTCACCTAGTGCAG  7840 fluorescence intensity (a.u.)
32. GAATCACAATTCTCGCTAACAACCTCCGCATTCCCCTGCGCGGAGTCACCTAGTGCAG  10800 fluorescence intensity (a.u.)
33. TTTAATTAAATATTATATATAATTGTTTTAAAGGAAAATGCGGAGTCACCTAGTGCAG  11600 fluorescence intensity (a.u.)
34. TTACCAGTACTAGCGCACTAAAGCATATACTGCCCTTTGCCGGAGTCACCTAGTGCAG  12100 fluorescence intensity (a.u.)
35. GACGATCGAGCACCAAATCAGCAAGAGCGCCGTGACATTTCGGAGTCACCTAGTGCAG  12600 fluorescence intensity (a.u.)
36. AGCCCAACTTCTACGGGCCGCACGTACGTGGCAATCTCGTCGGAGTCACCTAGTGCAG  13000 fluorescence intensity (a.u.)
37. GGGTCAAATTTCCACGTCAGCAAAACCAGGTGCCTATATTCGGAGTCACCTAGTGCAG  14900 fluorescence intensity (a.u.)
38. CAGCACAACCAGGCGATGCAAAATACTAAAGTTCCGGAGGCGGAGTCACCTAGTGCAG  15000 fluorescence intensity (a.u.)
39. TGATCTGTCTCCGTGTACACGTGGCCTCTGAAATTTACGCCGGAGTCACCTAGTGCAG  17700 fluorescence intensity (a.u.)
40. CTAGCTTCCTCCATTTCCTAGCTTCCTCACATGGGCTACCCGGAGTCACCTAGTGCAG  22400 fluorescence intensity (a.u.)
41. TCTACGGTTCTGCTTCAAGCAATTCAGCTAGTATCTCCATCGGAGTCACCTAGTGCAG  24700 fluorescence intensity (a.u.)
42. TATAAGAAACAAATCACTACCTCATGATGTAATTCTTTGGCGGAGTCACCTAGTGCAG  28900 fluorescence intensity (a.u.)

From publication PMC7819943, “Rice protein-binding microarrays: a tool to detect cis-acting elements near promoter regions in rice”
